The subject of the assay is mice, P1798 lymphosarcoma sc, survival or tumor weight T/C. The experiment in a line: NCI In Vivo Anticancer Drug Screen. Data for tumor model P1798 Lymphosarcoma (subcutaneous) in unknown mice. The note with it: T/C endpoint: mean tumor weight, schedule: Q01DX010 (ip), evaluation day not shown, higher T/C = larger tumour. As for the experimental part: The antitumor activity of compounds was measured in mice bearing transplantable tumors. Survival or tumor size were measured and the results are expressed as the measurement made in the treated group (T) divided by the measurement made in the vehicle treated control group (C). The tumor model used in this assay is P1798 Lymphosarcoma (subcutaneous) in unknown mice

[1] abbreviates: dose: 1.25 mg/kg/injection, vehicle: carboxymethylcellulose (CMC).
Where [2] appears, read: dose: 2.5 mg/kg/injection, vehicle: carboxymethylcellulose (CMC).
The mark [3] stands for this setting: dose: 5.0 mg/kg/injection, vehicle: carboxymethylcellulose (CMC).
The mark [4] stands for this setting: dose: 10.0 mg/kg/injection, vehicle: carboxymethylcellulose (CMC).

The list does not hold the whole screen: it gathers some chemical classes. Not every dose and run of a compound is shown. T/C gives the treated animals as a percentage of the vehicle group. Some entries show no survivor count and are marked so; the dose need not have been tolerated. Schedule codes are those of the source, taken here to give the interval after Q, in days (D) or hours (H), and the number of doses after X.

Regarding `CC(C(=O)O)N(CCCl)CCCl` (stereo not given), the T/C is 97 % of control [survivor count not shown] under setting [1], 90 % of control [survivor count not shown] under setting [2], 99 % of control [survivor count not shown] under setting [3] and 47 % of control [survivor count not shown] under setting [4].

Take `ClCCNCCCl`: the T/C is, setting by setting: (dose: 3.1 mg/kg/injection, vehicle: carboxymethylcellulose (CMC)) 85 % of control [survivor count not shown]; (dose: 6.25 mg/kg/injection, vehicle: carboxymethylcellulose (CMC)) 80 % of control [survivor count not shown]; (dose: 12.5 mg/kg/injection, vehicle: carboxymethylcellulose (CMC)) 59 % of control [survivor count not shown]; (dose: 25.0 mg/kg/injection, vehicle: carboxymethylcellulose (CMC)) 39 % of control [survivor count not shown].

For `O=C(O)CN(CCCl)CCCl`, the T/C reads like this: (dose: 1.0 mg/kg/injection, vehicle: saline) 81 % of control [survivor count not shown]; (dose: 2.0 mg/kg/injection, vehicle: saline) 72 % of control [survivor count not shown].

Take `NC(Cc1cccc(N(CCCl)CCCl)c1)C(=O)O` (stereo not given): the T/C was 58 % of control [survivor count not shown] (dose: 0.63 mg/kg/injection, vehicle: carboxymethylcellulose (CMC)); 38 % of control [survivor count not shown] under setting [1]; 3 % of control [survivor count not shown] under setting [2].

Take `ClCCN(CCCl)Cc1nc2ccccc2[nH]1`: the T/C reads like this: under setting [3], 28 % of control [survivor count not shown]; under setting [4], 14 % of control [survivor count not shown].

These data come from PubChem BioAssay AID290 (DTP/NCI, 2004).
